Entries after “also recorded” stand apart in the source; their conditions may differ.
Test system: high cholesterol diet, ApoE*3-Leiden mouse model of atherosclerosis
Experiment: Effects on plasma lipoprotein profiles in the high cholesterol diet ApoE*3-Leiden mouse model of atherosclerosis (FIG. 3)
Format: in vivo
From the text: FIG. 3 is a graph of the effects of atorvastatin and BGM 25136 alone and in combination on plasma lipoprotein profiles in the high cholesterol diet, ApoE*3-Leiden mouse model of atherosclerosis. […] See Delsing et al. for methods.
The essential elements for combination drug discovery guided by system response profiles are knowledge of SRPs for many human diseases, the availability of SRP-qualified animal models and SRPs for compounds in control animals. The potential benefits of such an approach is exemplified in FIG. 3 for a study performed with hypolipidemic drugs in monotherapy and combined therapy on the regression of atherosclerosis in the ApoE*3-Leiden transgenic mouse.

CC(C)c1c(C(=O)Nc2ccccc2)c(-c2ccccc2)c(-c2ccc(F)cc2)n1CC[C@@H](O)C[C@@H](O)CC(=O)O [atorvastatin]
cholesterol across all lipoprotein particle categories (plasma lipoprotein profile): overall lowering of the cholesterol levels; also recorded: lower cholesterol across all particle categories
